Experimental data published in the supplement of paper PMC10849652.
The other results are listed elsewhere or left out.

By UniProt entry, the sequences of proteins in these tests, tags left out. Where a name states a change or a piece, a line headed by the entry shows the natural chain unless it says otherwise.
UniProt Q5T2D2: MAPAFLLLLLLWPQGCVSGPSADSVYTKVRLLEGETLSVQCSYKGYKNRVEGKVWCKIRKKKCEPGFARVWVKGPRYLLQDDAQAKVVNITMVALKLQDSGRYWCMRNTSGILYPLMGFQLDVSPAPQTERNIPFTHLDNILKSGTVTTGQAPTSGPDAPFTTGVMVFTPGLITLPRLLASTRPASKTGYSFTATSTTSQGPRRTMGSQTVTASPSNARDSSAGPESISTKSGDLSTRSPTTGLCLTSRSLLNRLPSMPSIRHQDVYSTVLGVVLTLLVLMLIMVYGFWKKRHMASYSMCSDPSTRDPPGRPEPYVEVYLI
UniProt P36406: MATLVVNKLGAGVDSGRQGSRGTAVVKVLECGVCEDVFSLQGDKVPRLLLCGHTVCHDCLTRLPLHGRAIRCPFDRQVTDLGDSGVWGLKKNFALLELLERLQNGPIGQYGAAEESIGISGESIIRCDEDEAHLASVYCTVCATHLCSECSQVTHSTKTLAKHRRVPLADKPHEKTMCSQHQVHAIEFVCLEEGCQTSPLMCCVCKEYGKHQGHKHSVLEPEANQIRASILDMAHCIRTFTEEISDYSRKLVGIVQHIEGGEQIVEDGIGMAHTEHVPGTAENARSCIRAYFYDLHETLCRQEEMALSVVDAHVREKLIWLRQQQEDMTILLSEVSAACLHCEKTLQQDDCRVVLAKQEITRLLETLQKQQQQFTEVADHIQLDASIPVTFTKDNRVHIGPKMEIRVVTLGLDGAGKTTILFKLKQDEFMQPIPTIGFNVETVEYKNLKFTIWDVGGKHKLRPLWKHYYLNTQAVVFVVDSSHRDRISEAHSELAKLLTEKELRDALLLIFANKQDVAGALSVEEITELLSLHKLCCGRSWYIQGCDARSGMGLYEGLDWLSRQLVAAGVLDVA
UniProt O15164: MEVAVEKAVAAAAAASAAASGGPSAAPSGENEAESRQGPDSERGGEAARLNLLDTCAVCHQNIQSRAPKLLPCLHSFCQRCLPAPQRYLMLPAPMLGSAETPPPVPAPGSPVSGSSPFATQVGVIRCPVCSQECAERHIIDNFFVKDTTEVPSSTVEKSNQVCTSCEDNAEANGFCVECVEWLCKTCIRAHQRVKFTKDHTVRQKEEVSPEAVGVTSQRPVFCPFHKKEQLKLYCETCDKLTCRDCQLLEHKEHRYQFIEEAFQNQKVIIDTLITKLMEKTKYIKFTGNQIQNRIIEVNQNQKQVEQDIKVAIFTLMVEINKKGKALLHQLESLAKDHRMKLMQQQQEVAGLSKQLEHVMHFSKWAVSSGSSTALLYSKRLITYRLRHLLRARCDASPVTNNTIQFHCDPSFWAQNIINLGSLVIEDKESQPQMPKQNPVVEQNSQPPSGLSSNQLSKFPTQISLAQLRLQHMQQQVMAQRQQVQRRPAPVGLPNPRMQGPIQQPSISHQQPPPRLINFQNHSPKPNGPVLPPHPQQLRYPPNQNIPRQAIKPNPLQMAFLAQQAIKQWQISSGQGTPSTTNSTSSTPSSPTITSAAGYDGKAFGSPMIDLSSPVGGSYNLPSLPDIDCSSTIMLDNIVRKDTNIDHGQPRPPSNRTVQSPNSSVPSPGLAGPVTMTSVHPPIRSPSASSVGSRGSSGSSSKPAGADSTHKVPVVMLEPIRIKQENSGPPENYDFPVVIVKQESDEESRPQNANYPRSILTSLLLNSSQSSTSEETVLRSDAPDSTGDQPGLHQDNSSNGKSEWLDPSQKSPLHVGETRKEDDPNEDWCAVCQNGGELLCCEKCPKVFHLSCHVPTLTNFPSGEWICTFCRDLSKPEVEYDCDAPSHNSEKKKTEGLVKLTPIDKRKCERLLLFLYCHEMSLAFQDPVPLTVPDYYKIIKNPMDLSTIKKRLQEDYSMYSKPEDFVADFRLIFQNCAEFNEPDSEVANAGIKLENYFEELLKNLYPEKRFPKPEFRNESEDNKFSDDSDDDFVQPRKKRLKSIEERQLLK
UniProt Q9Y5R8, whole entry, looked up: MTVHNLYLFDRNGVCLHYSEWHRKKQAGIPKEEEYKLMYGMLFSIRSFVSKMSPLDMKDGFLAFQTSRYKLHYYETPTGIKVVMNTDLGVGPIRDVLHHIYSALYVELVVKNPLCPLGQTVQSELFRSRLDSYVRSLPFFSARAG
UniProt Q7Z392: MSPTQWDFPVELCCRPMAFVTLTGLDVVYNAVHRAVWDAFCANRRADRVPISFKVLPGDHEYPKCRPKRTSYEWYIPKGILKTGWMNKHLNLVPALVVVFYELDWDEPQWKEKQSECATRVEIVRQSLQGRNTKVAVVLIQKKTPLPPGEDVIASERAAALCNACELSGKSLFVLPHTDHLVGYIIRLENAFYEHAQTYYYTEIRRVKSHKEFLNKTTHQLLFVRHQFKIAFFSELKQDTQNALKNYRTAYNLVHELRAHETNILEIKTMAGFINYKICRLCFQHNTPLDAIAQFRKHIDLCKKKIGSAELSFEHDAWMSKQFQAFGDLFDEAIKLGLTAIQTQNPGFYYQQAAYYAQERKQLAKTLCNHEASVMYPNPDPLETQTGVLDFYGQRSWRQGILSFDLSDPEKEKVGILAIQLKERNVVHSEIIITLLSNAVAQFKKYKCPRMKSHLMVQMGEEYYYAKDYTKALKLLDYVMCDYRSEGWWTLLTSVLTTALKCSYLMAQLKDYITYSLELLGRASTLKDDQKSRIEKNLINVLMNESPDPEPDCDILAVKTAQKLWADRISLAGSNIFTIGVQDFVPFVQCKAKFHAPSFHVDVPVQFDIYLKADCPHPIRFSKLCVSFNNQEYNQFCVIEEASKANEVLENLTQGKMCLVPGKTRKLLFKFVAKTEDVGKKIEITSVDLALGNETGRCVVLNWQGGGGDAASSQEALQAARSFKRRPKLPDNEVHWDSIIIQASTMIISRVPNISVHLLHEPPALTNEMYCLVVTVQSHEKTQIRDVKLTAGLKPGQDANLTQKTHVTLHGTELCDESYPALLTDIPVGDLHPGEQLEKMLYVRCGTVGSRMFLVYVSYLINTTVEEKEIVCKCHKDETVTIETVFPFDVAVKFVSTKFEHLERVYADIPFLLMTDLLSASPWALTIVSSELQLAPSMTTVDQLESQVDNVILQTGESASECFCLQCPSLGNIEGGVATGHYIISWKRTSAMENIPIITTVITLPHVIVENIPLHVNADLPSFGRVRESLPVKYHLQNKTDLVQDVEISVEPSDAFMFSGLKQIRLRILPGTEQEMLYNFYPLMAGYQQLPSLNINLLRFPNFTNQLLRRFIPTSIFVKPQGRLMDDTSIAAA
UniProt Q9BSV6: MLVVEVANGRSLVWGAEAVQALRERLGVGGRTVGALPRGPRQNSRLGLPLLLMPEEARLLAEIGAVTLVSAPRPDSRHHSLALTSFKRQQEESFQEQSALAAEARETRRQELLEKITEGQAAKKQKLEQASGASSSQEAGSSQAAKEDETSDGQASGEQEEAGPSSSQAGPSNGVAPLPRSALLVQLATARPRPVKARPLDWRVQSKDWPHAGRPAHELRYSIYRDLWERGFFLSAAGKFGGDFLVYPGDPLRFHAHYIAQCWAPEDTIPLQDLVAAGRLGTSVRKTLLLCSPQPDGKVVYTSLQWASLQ
UniProt Q7L0Y3: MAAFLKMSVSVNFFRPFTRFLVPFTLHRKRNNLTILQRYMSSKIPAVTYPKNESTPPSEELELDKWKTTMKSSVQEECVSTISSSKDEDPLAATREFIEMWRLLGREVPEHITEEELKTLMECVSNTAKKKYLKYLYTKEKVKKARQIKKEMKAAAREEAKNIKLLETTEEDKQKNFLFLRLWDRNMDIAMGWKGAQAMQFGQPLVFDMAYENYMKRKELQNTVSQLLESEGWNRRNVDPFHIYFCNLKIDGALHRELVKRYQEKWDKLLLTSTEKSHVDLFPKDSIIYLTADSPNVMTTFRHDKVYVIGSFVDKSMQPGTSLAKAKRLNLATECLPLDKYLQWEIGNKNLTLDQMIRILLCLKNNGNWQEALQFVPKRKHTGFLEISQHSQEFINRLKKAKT
UniProt Q9H4I3: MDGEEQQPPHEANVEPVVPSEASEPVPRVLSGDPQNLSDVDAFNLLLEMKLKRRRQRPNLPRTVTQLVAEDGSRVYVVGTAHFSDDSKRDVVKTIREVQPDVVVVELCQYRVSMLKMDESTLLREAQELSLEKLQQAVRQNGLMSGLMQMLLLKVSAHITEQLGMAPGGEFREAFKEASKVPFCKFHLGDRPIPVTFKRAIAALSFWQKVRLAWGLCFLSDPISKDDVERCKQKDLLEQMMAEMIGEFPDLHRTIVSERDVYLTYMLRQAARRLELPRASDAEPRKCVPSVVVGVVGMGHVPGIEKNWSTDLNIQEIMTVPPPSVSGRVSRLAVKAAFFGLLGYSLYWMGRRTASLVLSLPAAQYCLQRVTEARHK
UniProt Q96FX7: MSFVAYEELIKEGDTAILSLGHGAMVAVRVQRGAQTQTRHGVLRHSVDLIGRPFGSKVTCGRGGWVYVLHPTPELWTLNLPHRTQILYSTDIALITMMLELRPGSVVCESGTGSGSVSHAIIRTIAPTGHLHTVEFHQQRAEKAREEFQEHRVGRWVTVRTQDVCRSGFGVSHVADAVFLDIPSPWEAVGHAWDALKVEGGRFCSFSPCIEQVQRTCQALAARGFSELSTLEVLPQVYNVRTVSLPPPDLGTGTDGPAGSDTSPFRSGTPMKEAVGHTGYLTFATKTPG
UniProt Q9P0U1: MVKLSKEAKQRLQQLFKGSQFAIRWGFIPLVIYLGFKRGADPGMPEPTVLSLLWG
UniProt P49815: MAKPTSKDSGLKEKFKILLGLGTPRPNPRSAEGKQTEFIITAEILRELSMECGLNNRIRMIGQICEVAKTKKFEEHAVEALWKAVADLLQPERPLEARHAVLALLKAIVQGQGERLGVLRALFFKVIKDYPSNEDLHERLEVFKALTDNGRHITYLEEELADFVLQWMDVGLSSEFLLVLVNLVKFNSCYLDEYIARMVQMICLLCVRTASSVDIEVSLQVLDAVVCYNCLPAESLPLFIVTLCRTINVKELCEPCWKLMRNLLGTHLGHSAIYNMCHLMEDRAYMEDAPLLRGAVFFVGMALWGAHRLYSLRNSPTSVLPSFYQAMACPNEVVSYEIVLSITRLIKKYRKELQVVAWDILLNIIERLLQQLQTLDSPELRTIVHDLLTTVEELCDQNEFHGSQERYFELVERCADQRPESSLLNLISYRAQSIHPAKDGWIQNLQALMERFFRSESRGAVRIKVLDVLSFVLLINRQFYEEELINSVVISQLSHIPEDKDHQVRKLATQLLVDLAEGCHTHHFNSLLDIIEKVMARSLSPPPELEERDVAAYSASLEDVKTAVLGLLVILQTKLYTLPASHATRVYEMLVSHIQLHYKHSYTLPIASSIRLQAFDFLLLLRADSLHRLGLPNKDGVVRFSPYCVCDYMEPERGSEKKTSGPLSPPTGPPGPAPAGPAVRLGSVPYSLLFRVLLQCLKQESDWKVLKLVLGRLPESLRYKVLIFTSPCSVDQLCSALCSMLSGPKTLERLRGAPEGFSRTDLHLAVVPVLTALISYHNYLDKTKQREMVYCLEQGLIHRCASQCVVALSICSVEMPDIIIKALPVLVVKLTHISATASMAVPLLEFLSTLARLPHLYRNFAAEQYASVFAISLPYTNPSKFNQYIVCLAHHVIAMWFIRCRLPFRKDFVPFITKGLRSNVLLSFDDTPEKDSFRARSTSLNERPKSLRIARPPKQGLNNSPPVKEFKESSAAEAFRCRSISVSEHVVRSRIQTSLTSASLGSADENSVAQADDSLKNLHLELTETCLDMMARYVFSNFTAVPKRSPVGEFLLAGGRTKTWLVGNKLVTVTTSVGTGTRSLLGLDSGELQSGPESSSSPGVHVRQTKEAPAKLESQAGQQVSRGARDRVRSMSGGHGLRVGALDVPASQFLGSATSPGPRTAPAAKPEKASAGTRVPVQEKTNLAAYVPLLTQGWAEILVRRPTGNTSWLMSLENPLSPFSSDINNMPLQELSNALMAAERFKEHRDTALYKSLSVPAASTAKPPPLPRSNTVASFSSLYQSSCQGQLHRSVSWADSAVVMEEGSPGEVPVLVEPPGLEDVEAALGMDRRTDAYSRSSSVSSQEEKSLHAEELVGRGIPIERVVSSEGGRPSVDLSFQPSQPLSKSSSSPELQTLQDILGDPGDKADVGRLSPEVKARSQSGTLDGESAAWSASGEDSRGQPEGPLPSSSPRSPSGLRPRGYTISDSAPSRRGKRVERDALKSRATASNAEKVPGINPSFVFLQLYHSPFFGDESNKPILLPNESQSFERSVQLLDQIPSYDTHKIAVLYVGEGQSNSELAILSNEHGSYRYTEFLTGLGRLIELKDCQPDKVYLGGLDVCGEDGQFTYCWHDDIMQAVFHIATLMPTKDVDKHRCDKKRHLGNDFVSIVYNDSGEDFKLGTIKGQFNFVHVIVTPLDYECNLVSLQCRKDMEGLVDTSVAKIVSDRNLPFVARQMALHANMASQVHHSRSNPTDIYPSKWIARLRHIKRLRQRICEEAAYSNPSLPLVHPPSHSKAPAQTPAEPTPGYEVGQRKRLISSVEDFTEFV
UniProt Q629K1: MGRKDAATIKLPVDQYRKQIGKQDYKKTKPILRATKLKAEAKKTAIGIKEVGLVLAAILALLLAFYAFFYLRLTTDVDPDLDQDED

Compound: C[C@@H](Oc1cc(-c2cnn(C3CCNCC3)c2)cnc1N)c1c(Cl)ccc(F)c1Cl [crizotinib]
Assay: log2 fold change, soluble protein after heating vs DMSO (PISA); higher = thermal stabilisation; K562 cells, 10 uM, 30 min; active = over 0.2 and 3.5 SD of the protein, either way, in both replicates (recomputed)
How it was run: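 K562 cells at 2×10^6 cells/mL were treated for 30 min with 10 μM compound, and aliquots were heated for 3 min over 48°C-58°C before pooling. Extraction used PBS with 0.5% NP-40 at 4°C, and soluble protein was the supernatant after 21,000xg for 90 min, measured by TMTpro 16plex LC-MS/MS with channel sums equalised. Thermal stability values, relative to control samples and from duplicates, are log2 fold changes.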

log2 fold change, inactive:
TP53BP2 isoform 3 (UniProt Q13625) -0.087
TRIP11 (UniProt Q15643) -0.006
TPP2 (UniProt Q5VZU9) -0.082
TPPP3 (UniProt Q9BW30) 0.1
TOM1 (UniProt O60784) -0.054
TPK1 (UniProt Q9H3S4) -0.017
TRUB2 (UniProt O95900) 0.143
TRIM4 (UniProt Q9C037) 0.045
TOM1L2 (UniProt Q6ZVM7) 0.101
TNRC6B (UniProt Q9UPQ9) -0.056
TREML2 (UniProt Q5T2D2) -0.043
TRAF7 (UniProt Q6Q0C0) 0.241
TRIM23 (UniProt P36406) 0.152
TRPM7 (UniProt Q96QT4) 0.026
TRIM24 (UniProt O15164) -0.036
TRAPPC1 (UniProt Q9Y5R8) 0.002
TRAPPC11 (UniProt Q7Z392) 0.008
TSEN34 (UniProt Q9BSV6) -0.042
TRPC4AP (UniProt Q8TEL6) -0.018
TP53BP1 isoform 2 (UniProt Q12888) 0.076
TNFRSF8 (UniProt P28908) 0.15
TRMT10C (UniProt Q7L0Y3) 0.03
TRIO (UniProt O75962) -0.021
TRPT1 isoform 4 (UniProt Q86TN4) -0.011
TRABD (UniProt Q9H4I3) 0.174
TRIP10 isoform 2 (UniProt Q15642) 0.056
TSEN2 (UniProt Q8NCE0) 0.052
TRMT61A (UniProt Q96FX7) -0.046
TRIM44 (UniProt Q96DX7) 0.083
TOMM7 (UniProt Q9P0U1) 0.123
TSC2 (UniProt P49815) 0.065
TRAPPC6B (UniProt Q86SZ2) 0.024
TRIQK (UniProt Q629K1) 0.024

Pulled one by one from the entries so far, 2 records:
log2 fold change, inactive:
TRIM23 (UniProt P36406) 0.152
TPPP3 (UniProt Q9BW30) 0.1
